# Measured values: publication PMC12239982
# Amino acid sequences for entries named in this document (tags omitted). Residues count along the entry.
# UniProt P10809, residues 27-573: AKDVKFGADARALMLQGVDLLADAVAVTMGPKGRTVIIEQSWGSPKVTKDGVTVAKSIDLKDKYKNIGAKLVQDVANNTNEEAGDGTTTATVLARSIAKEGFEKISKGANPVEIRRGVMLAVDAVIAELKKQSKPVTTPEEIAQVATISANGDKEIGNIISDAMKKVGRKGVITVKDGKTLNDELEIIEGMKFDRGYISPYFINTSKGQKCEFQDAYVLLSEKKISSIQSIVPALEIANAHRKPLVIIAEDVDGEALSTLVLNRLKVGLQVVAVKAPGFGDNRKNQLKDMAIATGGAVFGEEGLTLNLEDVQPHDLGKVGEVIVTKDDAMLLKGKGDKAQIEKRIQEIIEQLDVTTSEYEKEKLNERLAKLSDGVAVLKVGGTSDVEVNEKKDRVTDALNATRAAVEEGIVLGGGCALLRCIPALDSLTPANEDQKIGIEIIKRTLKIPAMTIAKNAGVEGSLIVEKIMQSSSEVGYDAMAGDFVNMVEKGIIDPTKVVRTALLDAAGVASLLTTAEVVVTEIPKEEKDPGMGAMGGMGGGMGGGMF
# No constants are given. Whether binding was seen depends on the method and setting. Binding seen in cells or lysates may run through a third protein. A result given as binding can be weak or reduced; the word gives no strength.
# Columns and labels:
# [1] = molecular target: HSP60-Flag (from pcDNA-HSP60-Flag) (UniProt P10809); test: co-IP; HCT116 transfected with pcDNA-HSP60-Flag (pcDNA3.1 as negative control), 48 h; lysate (1 mg) on anti-Flag magnetic beads, 4 C overnight; blot with anti-Flag, anti-HSP60 and anti-VEGFA
# [2] = molecular target: HSP60 (heat shock protein family 60), endogenous (human (endogenous in RKO, CX-1 or HCT116)) (UniProt P10809); test: co-IP; cell lysate (1 mg) on Protein A/G beads with anti-HSP60 (2 ug) or control IgG, 4 C overnight; blot with anti-HSP60 and anti-VEGFA; both proteins endogenous
substance,measurement,setting,value
"vascular endothelial growth factor A (VEGFA), endogenous (from UniProt P15692-4)",binding,[1],binds
same,binding,[2],binds
